Some of the results follow. The calls rarely recur for the same compound in another form.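 Kinases were expressed as nanoluciferase fusions in K562 cells and luminescence was read every 4 h between 2 and 18 h as percent of control, DMSO set to 100% and a positive control to 0%. A time point counts as decreased when the signal drops significantly (2 sigma). The hit call is the authors' own, does not follow from the count of time points alone, and its rule is not shown.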
Key:
Conditions in all cases: K562; 2-18 h
[1] = target: STK38 (UniProt Q15208); assay: kinase-Nluc reporter destabilization hit call (1 = scored as downregulated) (binary); higher = compound decreases kinase abundance
[2] = target: SYK (UniProt P43405); assay: as above
[3] = target: TEC (UniProt P42680); assay: as above
[4] = target: TYK2 (UniProt P29597); assay: as above
[5] = target: ULK3 (UniProt Q6PHR2); assay: as above
[6] = target: YES1 (UniProt P07947); assay: as above
[7] = target: ZAK (UniProt Q9NYL2); assay: as above
[8] = target: ZAP70 (UniProt P43403); assay: as above
[9] = target: ABL1 (UniProt P00519); assay: number of time points (of 5) at which kinase-Nluc abundance scored as decreased, DMSO-normalised (count); higher = more persistent destabilization
[10] = target: AKT1 (UniProt P31749); assay: as above
[11] = target: ALK (UniProt Q9UM73); assay: as above
[12] = target: ARAF (UniProt P10398); assay: as above
[13] = target: AURKA (UniProt O14965); assay: as above
[14] = target: AURKB (UniProt Q96GD4); assay: as above
[15] = target: AURKC (UniProt Q9UQB9); assay: as above
[16] = target: BLK (UniProt P51451); assay: as above
[17] = target: BMX (UniProt P51813); assay: as above
[18] = target: BRAF (UniProt P15056); assay: as above
[19] = system: BRAF_V600E; assay: as above
[20] = target: BTK (UniProt Q06187); assay: as above

By UniProt entry, the sequences of proteins in these tests, tags left out. Where a name states a change or a piece, a line headed by the entry shows the natural chain unless it says otherwise.
UniProt P42680: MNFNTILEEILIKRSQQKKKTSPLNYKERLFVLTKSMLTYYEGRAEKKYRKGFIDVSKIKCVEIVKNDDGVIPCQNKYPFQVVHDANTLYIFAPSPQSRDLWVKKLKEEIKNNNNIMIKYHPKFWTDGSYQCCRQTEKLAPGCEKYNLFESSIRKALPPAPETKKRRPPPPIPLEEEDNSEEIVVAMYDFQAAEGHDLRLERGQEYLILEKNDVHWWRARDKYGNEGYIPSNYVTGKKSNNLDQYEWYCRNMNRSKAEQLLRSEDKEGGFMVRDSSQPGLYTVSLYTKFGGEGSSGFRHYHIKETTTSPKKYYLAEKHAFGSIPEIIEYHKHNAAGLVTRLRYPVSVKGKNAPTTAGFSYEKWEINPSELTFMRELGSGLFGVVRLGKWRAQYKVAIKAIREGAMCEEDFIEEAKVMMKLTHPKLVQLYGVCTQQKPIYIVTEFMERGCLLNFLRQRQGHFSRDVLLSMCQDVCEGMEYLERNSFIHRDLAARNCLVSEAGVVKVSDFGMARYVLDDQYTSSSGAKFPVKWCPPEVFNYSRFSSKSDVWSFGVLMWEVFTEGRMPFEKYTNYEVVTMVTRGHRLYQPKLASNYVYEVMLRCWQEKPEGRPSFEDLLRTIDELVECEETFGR
UniProt P00519, whole entry: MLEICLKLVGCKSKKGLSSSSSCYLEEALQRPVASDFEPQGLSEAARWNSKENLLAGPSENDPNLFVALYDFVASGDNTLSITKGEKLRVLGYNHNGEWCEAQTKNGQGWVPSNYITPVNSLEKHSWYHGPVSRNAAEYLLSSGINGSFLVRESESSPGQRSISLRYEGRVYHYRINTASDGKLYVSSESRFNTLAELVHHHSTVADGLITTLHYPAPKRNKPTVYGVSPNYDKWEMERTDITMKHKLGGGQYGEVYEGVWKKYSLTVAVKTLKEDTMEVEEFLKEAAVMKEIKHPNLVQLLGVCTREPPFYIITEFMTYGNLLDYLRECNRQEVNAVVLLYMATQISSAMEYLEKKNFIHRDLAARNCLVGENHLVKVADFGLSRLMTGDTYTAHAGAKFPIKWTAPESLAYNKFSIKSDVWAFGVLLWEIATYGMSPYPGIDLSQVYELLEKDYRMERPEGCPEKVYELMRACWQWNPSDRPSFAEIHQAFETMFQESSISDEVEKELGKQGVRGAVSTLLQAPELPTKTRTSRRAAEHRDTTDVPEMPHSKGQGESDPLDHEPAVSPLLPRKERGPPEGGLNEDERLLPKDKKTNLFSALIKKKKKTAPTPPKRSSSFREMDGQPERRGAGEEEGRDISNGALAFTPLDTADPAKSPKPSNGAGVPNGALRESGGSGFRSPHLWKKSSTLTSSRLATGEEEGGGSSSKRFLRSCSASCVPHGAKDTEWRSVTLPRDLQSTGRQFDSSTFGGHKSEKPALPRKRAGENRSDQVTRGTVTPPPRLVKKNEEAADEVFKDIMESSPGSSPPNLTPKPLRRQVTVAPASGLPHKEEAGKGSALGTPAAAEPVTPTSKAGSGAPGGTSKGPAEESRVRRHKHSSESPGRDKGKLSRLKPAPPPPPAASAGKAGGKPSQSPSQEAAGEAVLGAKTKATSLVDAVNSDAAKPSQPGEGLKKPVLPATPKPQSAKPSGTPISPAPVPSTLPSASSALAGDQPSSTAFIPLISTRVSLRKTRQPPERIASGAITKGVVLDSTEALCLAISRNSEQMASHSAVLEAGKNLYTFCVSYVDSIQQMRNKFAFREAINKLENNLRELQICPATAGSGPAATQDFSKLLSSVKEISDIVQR
UniProt P31749: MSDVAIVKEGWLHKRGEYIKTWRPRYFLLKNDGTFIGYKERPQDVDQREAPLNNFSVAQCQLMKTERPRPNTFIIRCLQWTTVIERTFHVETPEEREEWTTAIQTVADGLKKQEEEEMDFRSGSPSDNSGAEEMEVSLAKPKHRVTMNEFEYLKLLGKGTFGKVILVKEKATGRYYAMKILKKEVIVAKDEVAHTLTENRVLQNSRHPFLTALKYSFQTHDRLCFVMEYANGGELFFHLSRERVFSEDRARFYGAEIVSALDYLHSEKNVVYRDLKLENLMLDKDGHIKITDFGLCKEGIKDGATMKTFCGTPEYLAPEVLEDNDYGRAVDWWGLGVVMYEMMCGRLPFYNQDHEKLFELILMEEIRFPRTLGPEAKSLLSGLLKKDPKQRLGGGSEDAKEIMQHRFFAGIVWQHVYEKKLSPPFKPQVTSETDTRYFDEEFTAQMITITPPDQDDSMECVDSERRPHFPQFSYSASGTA
UniProt Q9UM73: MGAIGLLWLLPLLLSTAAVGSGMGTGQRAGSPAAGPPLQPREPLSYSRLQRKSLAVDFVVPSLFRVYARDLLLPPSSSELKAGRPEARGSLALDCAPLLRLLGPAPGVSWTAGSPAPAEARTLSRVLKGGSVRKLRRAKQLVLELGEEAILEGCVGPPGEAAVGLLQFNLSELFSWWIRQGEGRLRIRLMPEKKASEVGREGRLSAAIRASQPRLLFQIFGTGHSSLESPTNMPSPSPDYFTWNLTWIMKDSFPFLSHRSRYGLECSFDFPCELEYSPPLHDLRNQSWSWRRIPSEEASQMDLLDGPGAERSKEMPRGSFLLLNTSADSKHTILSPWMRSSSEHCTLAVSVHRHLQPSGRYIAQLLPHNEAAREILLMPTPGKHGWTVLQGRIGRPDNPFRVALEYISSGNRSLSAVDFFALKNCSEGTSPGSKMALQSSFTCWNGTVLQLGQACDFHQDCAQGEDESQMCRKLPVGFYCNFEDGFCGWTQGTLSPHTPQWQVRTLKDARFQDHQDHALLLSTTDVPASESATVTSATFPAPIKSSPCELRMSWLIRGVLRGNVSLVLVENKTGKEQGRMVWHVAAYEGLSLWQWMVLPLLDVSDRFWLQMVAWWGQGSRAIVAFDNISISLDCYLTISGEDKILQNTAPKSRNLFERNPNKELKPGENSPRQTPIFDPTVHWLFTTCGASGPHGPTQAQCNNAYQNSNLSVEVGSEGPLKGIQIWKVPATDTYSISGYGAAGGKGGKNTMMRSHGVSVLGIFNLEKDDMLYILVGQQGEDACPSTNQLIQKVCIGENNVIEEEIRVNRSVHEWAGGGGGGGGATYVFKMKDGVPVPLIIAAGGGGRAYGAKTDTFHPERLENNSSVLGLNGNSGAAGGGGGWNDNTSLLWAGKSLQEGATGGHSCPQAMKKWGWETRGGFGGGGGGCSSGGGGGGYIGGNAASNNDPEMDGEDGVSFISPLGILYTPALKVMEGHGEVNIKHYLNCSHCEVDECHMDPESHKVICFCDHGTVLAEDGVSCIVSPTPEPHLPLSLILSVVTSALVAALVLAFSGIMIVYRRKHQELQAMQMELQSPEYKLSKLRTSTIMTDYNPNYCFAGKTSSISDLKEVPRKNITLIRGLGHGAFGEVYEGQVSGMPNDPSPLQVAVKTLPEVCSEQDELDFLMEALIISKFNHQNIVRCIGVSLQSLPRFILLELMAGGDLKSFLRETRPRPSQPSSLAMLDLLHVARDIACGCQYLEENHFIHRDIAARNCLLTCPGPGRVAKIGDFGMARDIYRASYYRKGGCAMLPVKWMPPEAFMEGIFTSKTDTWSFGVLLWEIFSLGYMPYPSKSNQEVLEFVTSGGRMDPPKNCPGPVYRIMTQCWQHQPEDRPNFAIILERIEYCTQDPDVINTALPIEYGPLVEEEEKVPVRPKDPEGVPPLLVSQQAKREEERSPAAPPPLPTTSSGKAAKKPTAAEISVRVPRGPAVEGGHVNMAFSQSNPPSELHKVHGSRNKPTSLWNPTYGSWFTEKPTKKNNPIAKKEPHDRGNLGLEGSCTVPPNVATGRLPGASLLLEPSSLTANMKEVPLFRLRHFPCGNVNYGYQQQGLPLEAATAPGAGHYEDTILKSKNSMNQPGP
UniProt O14965: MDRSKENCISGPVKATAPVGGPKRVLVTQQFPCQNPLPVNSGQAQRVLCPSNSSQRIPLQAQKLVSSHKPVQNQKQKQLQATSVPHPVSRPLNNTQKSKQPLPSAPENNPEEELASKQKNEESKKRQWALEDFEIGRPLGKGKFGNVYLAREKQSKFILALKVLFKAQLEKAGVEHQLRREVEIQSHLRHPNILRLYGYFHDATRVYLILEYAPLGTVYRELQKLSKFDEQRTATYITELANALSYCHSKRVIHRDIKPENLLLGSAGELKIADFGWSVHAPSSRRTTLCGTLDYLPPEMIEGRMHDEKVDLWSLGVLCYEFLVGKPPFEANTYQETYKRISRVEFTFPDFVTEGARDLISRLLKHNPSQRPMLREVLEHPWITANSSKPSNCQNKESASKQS
UniProt Q9UQB9: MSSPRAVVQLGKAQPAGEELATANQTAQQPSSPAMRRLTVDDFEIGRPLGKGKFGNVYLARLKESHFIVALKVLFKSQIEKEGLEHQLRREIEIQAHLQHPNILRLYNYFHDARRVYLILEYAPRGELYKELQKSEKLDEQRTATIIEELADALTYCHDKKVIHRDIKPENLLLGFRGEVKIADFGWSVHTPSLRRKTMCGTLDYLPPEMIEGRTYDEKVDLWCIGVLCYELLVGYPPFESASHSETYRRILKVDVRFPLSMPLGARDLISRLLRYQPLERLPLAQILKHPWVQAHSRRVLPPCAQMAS
UniProt P51451: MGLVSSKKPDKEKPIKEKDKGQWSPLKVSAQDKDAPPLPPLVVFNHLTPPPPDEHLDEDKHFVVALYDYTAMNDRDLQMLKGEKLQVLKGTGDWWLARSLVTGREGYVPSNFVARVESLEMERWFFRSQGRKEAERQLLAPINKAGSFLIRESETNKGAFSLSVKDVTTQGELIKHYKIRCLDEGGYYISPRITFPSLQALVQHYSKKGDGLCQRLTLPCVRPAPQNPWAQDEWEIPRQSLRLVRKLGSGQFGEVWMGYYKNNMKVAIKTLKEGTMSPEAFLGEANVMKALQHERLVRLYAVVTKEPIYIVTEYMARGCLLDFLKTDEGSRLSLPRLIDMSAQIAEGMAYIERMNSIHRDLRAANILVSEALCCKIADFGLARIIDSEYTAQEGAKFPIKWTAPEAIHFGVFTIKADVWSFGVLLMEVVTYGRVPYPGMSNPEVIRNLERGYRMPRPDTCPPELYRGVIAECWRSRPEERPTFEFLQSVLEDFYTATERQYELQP
UniProt P51813: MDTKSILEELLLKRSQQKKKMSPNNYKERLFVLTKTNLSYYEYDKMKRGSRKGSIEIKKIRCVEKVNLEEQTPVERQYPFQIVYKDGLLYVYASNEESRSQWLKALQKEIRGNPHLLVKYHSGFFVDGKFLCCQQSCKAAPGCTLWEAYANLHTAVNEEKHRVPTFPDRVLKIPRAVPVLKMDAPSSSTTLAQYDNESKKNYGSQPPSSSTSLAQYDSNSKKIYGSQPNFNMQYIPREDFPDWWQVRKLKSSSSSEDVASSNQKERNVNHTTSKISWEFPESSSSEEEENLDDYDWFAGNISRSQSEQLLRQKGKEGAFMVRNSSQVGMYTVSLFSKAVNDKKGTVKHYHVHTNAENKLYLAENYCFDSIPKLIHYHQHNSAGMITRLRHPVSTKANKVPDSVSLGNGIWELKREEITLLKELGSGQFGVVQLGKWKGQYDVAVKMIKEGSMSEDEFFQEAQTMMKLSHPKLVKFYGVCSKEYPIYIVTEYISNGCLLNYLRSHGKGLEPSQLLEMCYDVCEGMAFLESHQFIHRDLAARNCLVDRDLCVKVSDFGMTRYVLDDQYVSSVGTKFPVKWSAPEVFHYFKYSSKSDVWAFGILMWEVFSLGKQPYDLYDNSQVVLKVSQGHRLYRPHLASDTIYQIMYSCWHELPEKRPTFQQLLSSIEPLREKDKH
UniProt P15056, whole entry, looked up: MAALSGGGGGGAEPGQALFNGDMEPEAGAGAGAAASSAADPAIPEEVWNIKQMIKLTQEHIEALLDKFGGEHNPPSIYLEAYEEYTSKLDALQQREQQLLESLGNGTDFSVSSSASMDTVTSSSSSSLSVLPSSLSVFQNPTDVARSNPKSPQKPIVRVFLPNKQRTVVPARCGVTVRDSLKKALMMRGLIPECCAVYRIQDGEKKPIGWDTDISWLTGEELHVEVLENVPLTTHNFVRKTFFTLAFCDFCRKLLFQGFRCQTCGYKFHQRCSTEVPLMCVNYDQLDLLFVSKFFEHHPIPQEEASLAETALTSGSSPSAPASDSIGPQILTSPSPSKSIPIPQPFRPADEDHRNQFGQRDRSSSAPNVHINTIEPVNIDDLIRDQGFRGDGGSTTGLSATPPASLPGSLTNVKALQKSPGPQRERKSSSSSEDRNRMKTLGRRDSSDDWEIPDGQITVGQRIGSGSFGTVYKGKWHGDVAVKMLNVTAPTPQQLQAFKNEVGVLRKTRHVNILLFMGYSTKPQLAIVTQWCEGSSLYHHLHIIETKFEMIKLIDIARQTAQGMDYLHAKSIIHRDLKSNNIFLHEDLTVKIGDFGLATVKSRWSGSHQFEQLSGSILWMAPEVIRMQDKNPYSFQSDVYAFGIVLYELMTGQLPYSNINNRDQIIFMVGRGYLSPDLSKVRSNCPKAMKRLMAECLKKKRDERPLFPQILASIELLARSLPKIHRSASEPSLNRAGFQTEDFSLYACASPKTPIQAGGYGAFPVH

Structure (SMILES) | kinase-Nluc reporter destabilization hit call [1] | kinase-Nluc reporter destabilization hit call [2] | kinase-Nluc reporter destabilization hit call [3] | kinase-Nluc reporter destabilization hit call [4] | kinase-Nluc reporter destabilization hit call [5] | kinase-Nluc reporter destabilization hit call [6] | kinase-Nluc reporter destabilization hit call [7] | kinase-Nluc reporter destabilization hit call [8] | number of time points [9] | number of time points [10] | number of time points [11] | number of time points [12] | number of time points [13] | number of time points [14] | number of time points [15] | number of time points [16] | number of time points [17] | number of time points [18] | number of time points [19] | number of time points [20]
CCS(=O)(=O)Nc1ccc2[nH]c(O)c(C(=Nc3ccc(CN4CCCCC4)cc3)c3ccccc3)c2c1 [Hesperadin] (2.5 µM) | inactive: 0 | inactive: 0 | inactive: 0 | inactive: 0 | inactive: 0 | inactive: 0 | inactive: 0 | inactive: 0 | 4 | 0 | 1 | 0 | 3 | 4 | 0 | 2 | 3 | 1 | 3 | 0
CNC(=O)c1cc(COc2nnc(Nc3ccc(Cl)cc3)c3ccoc23)ccn1 [Telatinib] (10 µM) | inactive: 0 | inactive: 0 | inactive: 0 | inactive: 0 | inactive: 0 | inactive: 0 | inactive: 0 | inactive: 0 | 0 | 0 | 0 | 0 | 0 | 0 | 0 | 0 | 0 | 0 | 0 | 0
COc1ccccc1-c1cc(Nc2cccc(CS(N)(=O)=O)c2)ncn1 (10 µM) | inactive: 0 | inactive: 0 | inactive: 0 | inactive: 0 | inactive: 0 | inactive: 0 | inactive: 0 | inactive: 0 | 0 | 0 | 2 | 0 | 3 | 0 | 0 | 0 | 2 | 0 | 2 | 0
O=C1Nc2ccc(C(=O)c3ccco3)cc2C1=Cc1cc(Cl)c(O)c(Cl)c1 (2.5 µM) | inactive: 0 | inactive: 0 | inactive: 0 | inactive: 0 | inactive: 0 | inactive: 0 | inactive: 0 | inactive: 0 | 0 | 0 | 0 | 0 | 0 | 0 | 0 | 0 | 0 | 0 | 0 | 0
Cn1cc(-c2cnn3c(N)c(Br)c([C@@H]4CCCNC4)nc23)cn1 (2.5 µM) | inactive: 0 | inactive: 0 | inactive: 0 | inactive: 0 | inactive: 0 | inactive: 0 | inactive: 0 | inactive: 0 | 2 | 0 | 2 | 0 | 0 | 0 | 0 | 0 | 1 | 1 | 1 | 0
O=c1[nH]c(=O)n([C@@H]2O[C@H](CO)[C@@H](O)[C@@H]2O)cc1/C=C/Br [Sorivudine] (10 µM) | inactive: 0 | inactive: 0 | inactive: 0 | inactive: 0 | inactive: 0 | inactive: 0 | inactive: 0 | inactive: 0 | 0 | 0 | 0 | 0 | 0 | 0 | 0 | 0 | 0 | 0 | 0 | 0
FC(F)(c1ccc2ncccc2c1)c1nnc2ccc(-c3ccncc3)nn12 (10 µM) | inactive: 0 | inactive: 0 | inactive: 0 | inactive: 0 | inactive: 0 | inactive: 0 | inactive: 0 | inactive: 0 | 0 | 0 | 0 | 0 | 0 | 0 | 0 | 0 | 0 | 0 | 0 | 0
O=C1NC(=O)/C(=C/c2ccc3nccnc3c2)S1 (10 µM) | inactive: 0 | inactive: 0 | inactive: 0 | inactive: 0 | inactive: 0 | inactive: 0 | inactive: 0 | inactive: 0 | 0 | 0 | 0 | 0 | 0 | 0 | 0 | 0 | 0 | 0 | 0 | 0
Cc1cc2ncc(-c3ccc(O)c(O)c3)nc2cc1C [Tyrphostin AG1433] (10 µM) | inactive: 0 | inactive: 0 | inactive: 0 | inactive: 0 | inactive: 0 | inactive: 0 | inactive: 0 | inactive: 0 | 0 | 0 | 0 | 0 | 0 | 0 | 0 | 0 | 0 | 0 | 0 | 0
COCCNc1nc2ccc(C#CC3(O)CCCCC3)cc2n1-c1ccnc(N)n1 (10 µM) | inactive: 0 | inactive: 0 | inactive: 0 | inactive: 0 | inactive: 0 | inactive: 0 | inactive: 0 | inactive: 0 | 0 | 0 | 0 | 0 | 0 | 0 | 0 | 0 | 0 | 0 | 0 | 0
CC(=O)c1c(C)cc2cccc(O)c2c1O [Nepodin] (10 µM) | inactive: 0 | inactive: 0 | inactive: 0 | inactive: 0 | inactive: 0 | inactive: 0 | inactive: 0 | inactive: 0 | 0 | 0 | 0 | 0 | 0 | 0 | 0 | 0 | 0 | 0 | 0 | 0
CC(C)(C)c1nc(-c2cccc(NS(=O)(=O)c3c(F)cccc3F)c2F)c(-c2ccnc(N)n2)s1 [Dabrafenib] (2.5 µM) | inactive: 0 | inactive: 0 | inactive: 0 | inactive: 0 | inactive: 0 | inactive: 0 | inactive: 0 | inactive: 0 | 0 | 0 | 0 | 0 | 0 | 0 | 0 | 0 | 0 | 0 | 0 | 0
C[C@@]1(c2ncncc2F)NC(=O)c2cc(-c3cn[nH]c3)ccc21 (10 µM) | inactive: 0 | inactive: 0 | inactive: 0 | inactive: 0 | inactive: 0 | inactive: 0 | inactive: 0 | inactive: 0 | 0 | 0 | 0 | 0 | 0 | 0 | 0 | 0 | 0 | 0 | 0 | 0
Nc1ncnc2c1c(-c1ccc(Oc3ccccc3)cc1)nn2C1CCCC1 (2.5 µM) | inactive: 0 | inactive: 0 | inactive: 0 | inactive: 0 | inactive: 0 | inactive: 0 | inactive: 0 | inactive: 0 | 0 | 0 | 0 | 0 | 0 | 0 | 0 | 0 | 0 | 0 | 0 | 0
Cc1c(-c2c(F)cc(C(N)=O)c3[nH]c4c(c23)CC[C@H](C(C)(C)O)C4)cccc1-n1c(=O)c2cccc(F)c2n(C)c1=O (2.5 µM) | inactive: 0 | inactive: 0 | inactive: 0 | inactive: 0 | inactive: 0 | inactive: 0 | inactive: 0 | inactive: 0 | 0 | 0 | 0 | 0 | 0 | 0 | 0 | 0 | 0 | 0 | 0 | 0
Cc1nc2sccn2c(=O)c1CCN1CCC(=C(c2ccccc2)c2ccc(F)cc2)CC1 (10 µM) | inactive: 0 | inactive: 0 | inactive: 0 | inactive: 0 | inactive: 0 | inactive: 0 | inactive: 0 | inactive: 0 | 0 | 0 | 0 | 0 | 0 | 0 | 0 | 0 | 0 | 0 | 0 | 0
O=Nc1c(-c2c(O)[nH]c3ccc(I)cc23)[nH]c2ccccc12 [5-Iodo-indirubin-3'-monoxime] (10 µM) | inactive: 0 | inactive: 0 | inactive: 0 | inactive: 0 | inactive: 0 | inactive: 0 | inactive: 0 | inactive: 0 | 0 | 0 | 0 | 0 | 0 | 0 | 0 | 0 | 0 | 4 | 0 | 0
CCOC(=O)N1CCN(C(=O)[C@H](Cc2cccc(C(=N)N)c2)NS(=O)(=O)c2c(C(C)C)cc(C(C)C)cc2C(C)C)CC1 (10 µM) | inactive: 0 | inactive: 0 | inactive: 0 | inactive: 0 | inactive: 0 | inactive: 0 | inactive: 0 | inactive: 0 | 0 | 0 | 0 | 0 | 0 | 0 | 0 | 0 | 0 | 0 | 0 | 0
C[C@@H]1CC[C@@H](Nc2nc(NC(C)(C)C)ncc2C(N)=O)C[C@H]1O (10 µM) | inactive: 0 | inactive: 0 | inactive: 0 | inactive: 0 | inactive: 0 | inactive: 0 | inactive: 0 | inactive: 0 | 0 | 0 | 0 | 0 | 0 | 0 | 0 | 0 | 0 | 0 | 0 | 0
CCN1CCN(Cc2ccc(Nc3ncc(F)c(-c4cc(F)c5nc(C)n(C(C)C)c5c4)n3)nc2)CC1 [Abemaciclib (methanesulfonate)] (10 µM) | inactive: 0 | inactive: 0 | inactive: 0 | inactive: 0 | inactive: 0 | inactive: 0 | inactive: 0 | inactive: 0 | 2 | 0 | 0 | 0 | 3 | 1 | 0 | 0 | 2 | 0 | 4 | 0

Full records as entered above. Order of values: kinase-Nluc reporter destabilization hit call [1] | kinase-Nluc reporter destabilization hit call [2] | kinase-Nluc reporter destabilization hit call [3] | kinase-Nluc reporter destabilization hit call [4] | kinase-Nluc reporter destabilization hit call [5] | kinase-Nluc reporter destabilization hit call [6] | kinase-Nluc reporter destabilization hit call [7] | kinase-Nluc reporter destabilization hit call [8] | number of time points [9] | number of time points [10] | number of time points [11] | number of time points [12] | number of time points [13] | number of time points [14] | number of time points [15] | number of time points [16] | number of time points [17] | number of time points [18] | number of time points [19] | number of time points [20]
COc1ccccc1-c1cc(Nc2cccc(CS(N)(=O)=O)c2)ncn1 (10 µM) in the list: inactive: 0 | inactive: 0 | inactive: 0 | inactive: 0 | inactive: 0 | inactive: 0 | inactive: 0 | inactive: 0 | 0 | 0 | 2 | 0 | 3 | 0 | 0 | 0 | 2 | 0 | 2 | 0
Nc1ncnc2c1c(-c1ccc(Oc3ccccc3)cc1)nn2C1CCCC1 (2.5 µM) in the list: inactive: 0 | inactive: 0 | inactive: 0 | inactive: 0 | inactive: 0 | inactive: 0 | inactive: 0 | inactive: 0 | 0 | 0 | 0 | 0 | 0 | 0 | 0 | 0 | 0 | 0 | 0 | 0

Reference: the supplement of paper PMC12823440, “Inhibitors supercharge kinase turnover through native proteolytic circuits” (Nature, 2025)
